Data from PubChem BioAssay AID1117319 (Southern Research Institute, 2015).
About 1,500 (0.58%) of roughly 260,000 compounds were called active. The shares of active, inactive and inconclusive entries below differ from those in the screen.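 How the source made its calls: active means inhibition above a set limit at one or more doses, reproduced on every date tested; inconclusive means results disagree between test dates, or hit never tested in dose response; inactive means the rest.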

Sequences of proteins named here, by UniProt entry; tags and fusion partners are left off. A change or cut given only in a name is not applied to a line headed by its entry.
UniProt P69720: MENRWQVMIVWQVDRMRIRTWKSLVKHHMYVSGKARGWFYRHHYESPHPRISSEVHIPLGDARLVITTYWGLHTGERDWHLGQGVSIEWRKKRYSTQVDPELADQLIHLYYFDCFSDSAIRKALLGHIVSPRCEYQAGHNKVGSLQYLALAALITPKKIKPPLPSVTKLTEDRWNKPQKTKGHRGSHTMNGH
UniProt P69721: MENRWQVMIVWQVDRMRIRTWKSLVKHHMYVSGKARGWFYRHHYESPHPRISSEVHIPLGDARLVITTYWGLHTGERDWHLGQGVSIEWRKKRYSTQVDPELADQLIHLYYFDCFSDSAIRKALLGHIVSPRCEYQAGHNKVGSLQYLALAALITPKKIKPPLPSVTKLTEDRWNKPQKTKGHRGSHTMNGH
UniProt P69722: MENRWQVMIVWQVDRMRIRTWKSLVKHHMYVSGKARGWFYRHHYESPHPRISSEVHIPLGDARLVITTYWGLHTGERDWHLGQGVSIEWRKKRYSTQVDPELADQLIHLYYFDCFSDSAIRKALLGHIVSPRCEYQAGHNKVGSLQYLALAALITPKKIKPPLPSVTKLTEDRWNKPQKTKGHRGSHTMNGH
UniProt P69723: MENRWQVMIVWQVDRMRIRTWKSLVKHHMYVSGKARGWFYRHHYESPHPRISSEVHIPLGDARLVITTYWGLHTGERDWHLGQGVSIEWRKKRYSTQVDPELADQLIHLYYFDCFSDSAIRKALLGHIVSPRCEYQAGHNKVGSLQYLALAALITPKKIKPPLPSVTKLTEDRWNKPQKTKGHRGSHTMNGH
UniProt Q9HC16: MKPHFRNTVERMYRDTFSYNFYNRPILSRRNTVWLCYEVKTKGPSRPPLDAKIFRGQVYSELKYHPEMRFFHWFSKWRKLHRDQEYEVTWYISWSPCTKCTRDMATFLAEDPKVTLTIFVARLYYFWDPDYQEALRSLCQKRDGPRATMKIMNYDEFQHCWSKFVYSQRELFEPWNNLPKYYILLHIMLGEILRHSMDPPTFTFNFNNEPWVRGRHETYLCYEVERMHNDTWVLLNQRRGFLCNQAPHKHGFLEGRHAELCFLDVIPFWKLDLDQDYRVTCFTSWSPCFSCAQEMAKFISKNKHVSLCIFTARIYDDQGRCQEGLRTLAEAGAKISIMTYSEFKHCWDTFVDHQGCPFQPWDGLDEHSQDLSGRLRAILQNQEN

Molecular target: Virion infectivity factor (Human immunodeficiency virus type 1 group M subtype B (isolate BH10)) + Virion infectivity factor (Human immunodeficiency virus type 1 group M subtype B (isolate BRU/LAI)) + Virion infectivity factor (Human immunodeficiency virus type 1 group M subtype B (isolate PCV12)) + Virion infectivity factor (Human immunodeficiency virus type 1 group M subtype B (isolate HXB2)) + DNA dC->dU-editing enzyme APOBEC-3G (Homo sapiens) (UniProt P69720+P69721+P69722+P69723+Q9HC16)
Assay: inhibitors of Vif binding to APOBEC3G peptide, primary screen, biochemical, TR-FRET, GST-Vif 1-94, biotin-A3G peptide, dose response retest (AID 1117319);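 further: Vif residues 1-94 fused to GST binding biotinylated APOBEC3G peptide 110-148; 0% = full assay without inhibitor and 100% = GST in place of GST-Vif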
Settings: hits give high values

SMILES | inhibition
CC1Cc2ccccc2N1C(=O)CSc1nnc(Cc2ccccc2)n1CCc1ccccc1 (stereo not drawn) | inconclusive: 36%
O=C(O)C=C1CCN(c2ncc(C(F)(F)F)cc2Cl)CC1 | inconclusive: 40%
CC(=O)Nc1ccc(OC(=O)c2cccnc2)cc1 | inconclusive: 39.7%
CC1(C)Cc2c(C#N)c(N3CCCC3)nc(-c3ccco3)c2CO1 | inconclusive: 45.7%
N#Cc1c(C(F)(F)F)cc(-c2ccco2)nc1SCc1ccncc1 | inconclusive: 34.8%
O=C(NC1(C(=O)NC2CCCCC2)CCCCC1)c1ccc2c(c1)OCO2 | inconclusive: 34%
CCOCCCNC(=O)C(NC(=O)CNC(C)=O)c1ccc(Cl)cc1 (stereo not drawn) | inconclusive: 44.1%
CCCC(=O)NCCc1ccc(S(N)(=O)=O)cc1 | inconclusive: 52.9%
Cn1c(=O)c2c(nc(CN3CCN(Cc4ccccc4)CC3)n2Cc2ccc(F)cc2)n(C)c1=O | inactive: 8.38%
O=C(CC(Cc1ccccc1)C(=O)O)Nc1ccc(F)cc1 (stereo not drawn) | inconclusive: 34.8%
CCOC(=O)N1CCN(C(=O)c2ccc(S(=O)(=O)c3ccc(C)cc3)c(NC(C)=O)c2)CC1 | inconclusive: 21.8%
O=C(/C=C/c1c(F)cccc1Cl)c1ccc(O)cc1 | inconclusive: 34.7%
O=C(Nc1ccc(S(=O)(=O)N2CCOCC2)cc1)c1ccc(=O)[nH]c1 | inconclusive: 34.5%
COc1ccc(OC)c(-c2cc(C(=O)Nc3c(C)nn(Cc4ccc(Cl)cc4)c3C)no2)c1 | inconclusive: 33.9%
O=C(O)c1cccc(S(=O)(=O)Nc2ccc3c(c2)OCO3)c1 | inconclusive: 40.8%
CCn1cc(C(=O)O)c(=O)c2cc(F)c(N/N=C/c3ccccc3[N+](=O)[O-])cc21 | inconclusive: 38.9%
CCSC1(SCC)N=C(N)C2(C#N)C(c3ccccc3)NC3=C(CCC3)C12C#N (stereo not drawn) | inconclusive: 42.3%
O=C1CC(c2ccco2)CC(O)=C1C=Nc1ccccc1-c1ccccc1 (stereo not drawn) | inactive: 18.4%
COc1cc(/C=C(\C#N)c2nc3ccccc3n2C)cc(OC)c1O | inconclusive: 39.9%
Cc1onc(-c2ccccc2)c1C(=O)N1CCN(c2ccc([N+](=O)[O-])cc2)CC1 | inactive: -0.35%

SMILES | inhibition
O=C(C1CCCO1)N1CCN(C(=S)NC2CC2)CC1 (stereo not drawn) | inactive: -5.45%
COc1ccc(CN(CC(=O)NC2CCCC2)C(=O)c2onc(C(N)=O)c2N)cc1 | inactive: 30.2%
Cn1nccc1CNC(=O)c1ccnn1C | inconclusive: 33.4%
CC(=O)Nc1ccc(S(=O)(=O)NCC(CCC(=O)O)C(F)(F)F)cc1 (stereo not drawn) | inconclusive: 44.2%
COc1ccc(Nc2ccccc2N)cc1 | inconclusive: 48.1%
O=C(Nc1ccc(S(=O)(=O)Nc2ncccn2)cc1)c1cccnc1 | inconclusive: 49.8%
CC(C)OCCCNC(=O)C1CCN(S(=O)(=O)N2CCCCC2)CC1 | inconclusive: 44.3%
CCC1(c2ccccc2)NC(=O)N(CC(=O)Nc2cccc(C#N)c2)C1=O (stereo not drawn) | inconclusive: 56.7%
NNC(=O)c1nn(-c2ccc(Cl)cc2)cc1O | inconclusive: 33.6%
CCC(=O)N/C=C/n1cnc2cc(C(F)(F)F)ccc21 | inconclusive: 52.6%
COc1c(O)ccc(C2NC(=O)NC(C)=C2C(=O)Nc2ccccc2C)c1[N+](=O)[O-] (stereo not drawn) | inconclusive: 46.3%
CCOC(=O)c1ccccc1NS(=O)(=O)c1ccc(S(=O)(=O)N2CCCC2)cc1 | inactive: 2.58%
CCOC(=O)N1CCN(C(=O)CN(C)S(=O)(=O)c2ccc(OC)c(OC)c2)CC1 | inconclusive: 41.1%
Cc1ccc(NC(=O)N/C=C/c2ccco2)cc1 | inconclusive: 56.4%
FC(F)(F)c1ccc(Cl)c(-n2c(Cc3cccs3)n[nH]c2=S)c1 | inconclusive: 62%
CC(C)(C)NC(=O)NC(=O)Cn1cc(C(F)(F)F)ccc1=O | inconclusive: 40.1%
CCOC(=O)N1CCN(Cc2nnc(-c3cccc(Br)c3)o2)CC1 | inactive: -4.74%
Cc1ccn2c(Nc3ccc4c(c3)OCO4)c(-c3ccccn3)nc2c1 | inconclusive: 57%
O=C1CCN(Cc2ccco2)C(=S)N1 | inactive: 3.3%
NS(=O)(=O)c1ccc(NC(=O)COC(=O)c2cn(-c3ccccc3)nc2-c2ccccc2)cc1 | inconclusive: 42.5%

SMILES | inhibition
O=C(CCl)N(C/C=C/c1ccccc1)c1ccc2c(c1)OCCO2 | inconclusive: 34%
COc1ccc2[nH]cc(CCNC(=O)C3CCCO3)c2c1 (stereo not drawn) | inconclusive: 35.5%
CCOC(=S)SCC(=O)Nc1nc(-c2ccccc2)cs1 | inconclusive: 46.4%
COc1cccc(-c2c(C#N)c(N)nc3c2c(=O)nc2sccn23)c1 | inconclusive: 57%
C=CCn1c(C)c(C(C)=O)c(N2CCCC2)nc1=S | inactive: 1.72%
CCOC(=O)c1c(NC(=O)CSc2nnc(-c3c[nH]c4ccccc34)n2C)sc2c1CCCC2 | inconclusive: 42.6%
COc1ccccc1/C=C\C=N\n1c(-c2ccc(Cl)cc2)n[nH]c1=S | inconclusive: 44.2%
CC(C)C(CCN1C(=O)c2ccccc2C1=O)c1ccco1 (stereo not drawn) | inconclusive: 44.9%
CC(Cl)C(=O)N1c2ccccc2CCc2ccccc21 (stereo not drawn) | inconclusive: 55.2%
O=C(NCc1ccco1)c1cc2c(s1)CSC2 | inconclusive: 48.8%
CCC(=O)Nc1ccc(NC(=O)Cc2ccccc2)cn1 | inconclusive: 34.5%
COc1ccc(OCC(=O)N/N=C/c2ccncc2)cc1 | inconclusive: 48.5%
COc1ccc(C(NC(=O)C2C3C=CC(C3)C2C(=O)O)c2ccccc2)cc1 (stereo not drawn) | inconclusive: 48.7%
COc1ccccc1NS(=O)(=O)c1cccc(NC(=S)NCCN2CCOCC2)c1 | inconclusive: 48.2%
COc1ccccc1Nc1nccc(N(C)C)c1C#N | inconclusive: 44.6%
O=C1NC(=S)SC1=Cc1ccccc1Cl | inactive: 1.68%
Oc1ccc(/C=N\Nc2cc(N3CCOCC3)nc(N3CCOCC3)n2)c(O)c1 | inconclusive: 50.5%
CC1=C(C(=O)Nc2ccccc2C(=O)N2CCC(C)CC2)SCCO1 | inconclusive: 61.7%

In a second layout: 2 of the compounds above
COc1ccc(Nc2ccccc2N)cc1
  inhibition: inconclusive: 48.1%
O=C(Nc1ccc(S(=O)(=O)Nc2ncccn2)cc1)c1cccnc1
  inhibition: inconclusive: 49.8%
